# Paper PMC7819943, “Rice protein-binding microarrays: a tool to detect cis-acting elements near promoter regions in rice”
# By UniProt entry, the sequences of proteins in these tests, tags left out.
# UniProt Q0JBA9, entry or part of it: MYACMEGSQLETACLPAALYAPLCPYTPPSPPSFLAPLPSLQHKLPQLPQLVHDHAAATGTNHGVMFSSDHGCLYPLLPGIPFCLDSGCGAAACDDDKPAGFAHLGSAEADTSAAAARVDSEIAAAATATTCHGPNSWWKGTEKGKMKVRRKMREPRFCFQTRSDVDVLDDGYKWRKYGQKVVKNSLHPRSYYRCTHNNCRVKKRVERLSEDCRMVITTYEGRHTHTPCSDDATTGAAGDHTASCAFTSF
# The other results are listed elsewhere or left out.
# Target: OsWRKY34 (Oryza sativa, UniProt Q0JBA9 1-250)
# Assay: protein-binding microarray (RPBM); PBS, 2% BSA, 51.3 ng/ul salmon testes DNA, 50 uM zinc acetate, 200 nM TF, 25 C, 1 h; high values mean tight binding
# Conditions: protein: recombinant; tags: N-terminal polyhistidine and DsRed monomer fusion (pET32a); label: CyDye5-dUTP incorporated in the synthesized complementary strand; 3' TTTTT single-stranded linker to array surface; dsDNA, one strand shown
# Method in brief: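 Polyhistidine-tagged DsRed fusions of transcription factors, joined at the N-terminus, were expressed in E. coli BL21-CodonPlus and isolated on Ni–NTA. They were incubated at 200 nM for 1 h at 25 °C on a custom Agilent array, double-stranded and BSA-blocked, in PBS with 2% BSA, salmon testes DNA and 50 µM zinc acetate. The binding signal is per-feature fluorescence intensity (arbitrary units) read on an Axon 4000B scanner after washing.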
row,Sequence,binding signal
1,TTGACCCTGCCTACTCCTACGTGGCAATCTGGCATCTGCACGGAGTCACCTAGTGCAG,8490 fluorescence intensity (a.u.)
2,ATACATATATTCCACGCTACACGTTGTGGGCTTTTTTTTCCGGAGTCACCTAGTGCAG,8350 fluorescence intensity (a.u.)
3,ATCCCCGGCGTGCCCCATCTCCGGCGGCTGCTTCCCCGCCCGGAGTCACCTAGTGCAG,8120 fluorescence intensity (a.u.)
4,ATGTGGCTGACGAGGCTCTTTTGCTTTATTCTGTGGTGTGCGGAGTCACCTAGTGCAG,9460 fluorescence intensity (a.u.)
5,CAGATGCTGGTCGGGTTCTTGTTTCTTTCACACCGTCGAACGGAGTCACCTAGTGCAG,11400 fluorescence intensity (a.u.)
6,TTTATAGGCCATACACATATTTCACTCCACTCCATTCATACGGAGTCACCTAGTGCAG,8520 fluorescence intensity (a.u.)
7,ACCAATATTTAAAGCACTCATTTTCTGGGTACAACATTATCGGAGTCACCTAGTGCAG,9320 fluorescence intensity (a.u.)
8,TATATATATATATATTCATTAACATCAATATTAATGTGGGCGGAGTCACCTAGTGCAG,10100 fluorescence intensity (a.u.)
9,GTCTCTCGTCCTGTCATCTTTCCCATCTTCGGTGACATCCCGGAGTCACCTAGTGCAG,8270 fluorescence intensity (a.u.)
10,ATACTCCGACGTCTTACCTGCCGTTTGGGGCACCGACATGCGGAGTCACCTAGTGCAG,9030 fluorescence intensity (a.u.)
11,TTTGGTTGCTTACACGAGAGATACGGTTTGGAAGAGATTTCGGAGTCACCTAGTGCAG,8250 fluorescence intensity (a.u.)
12,CAATTCCGTTATTTTTATTTTTCATATTTTCACCGTTTGGCGGAGTCACCTAGTGCAG,8840 fluorescence intensity (a.u.)
13,CTAAATTTGTAAACATTGTCTTGATATTTCTTTGTTTCCTCGGAGTCACCTAGTGCAG,8040 fluorescence intensity (a.u.)
14,CTTATCTTTTTTTTTCTTGAACGAACATTTCATTTCTTATCGGAGTCACCTAGTGCAG,8110 fluorescence intensity (a.u.)
15,TCTTCTGTAATTTCTGTCAATACTCCTTCCATGATTTGCTCGGAGTCACCTAGTGCAG,10200 fluorescence intensity (a.u.)
16,GCCGCCCGTTTGGACACCTCTACCTACAACCAGCATTATCCGGAGTCACCTAGTGCAG,8500 fluorescence intensity (a.u.)
17,AAACTAGATCCTACGGCGATTTTGACTCCGATTTTATCCGCGGAGTCACCTAGTGCAG,8250 fluorescence intensity (a.u.)
18,TTTATAAGCGCTAGTGCCTTGCCAAGTCGACACGTGGCTCCGGAGTCACCTAGTGCAG,8280 fluorescence intensity (a.u.)
19,GACACCTTGACGCCGTGGAGGAGGGCGGCGTTGACCCAGCCGGAGTCACCTAGTGCAG,12100 fluorescence intensity (a.u.)
20,TTTTGCAAAGCATTCCTCGCGCTTTCAGCTAATTACGCATCGGAGTCACCTAGTGCAG,8500 fluorescence intensity (a.u.)
21,CTGGGTTTGGCCTGTTAGTGTGAGTGGGCCTGGGTTATCACGGAGTCACCTAGTGCAG,9010 fluorescence intensity (a.u.)

# Looked up one by one from the entries so far:
row,Sequence,binding signal
14,CTTATCTTTTTTTTTCTTGAACGAACATTTCATTTCTTATCGGAGTCACCTAGTGCAG,8110 fluorescence intensity (a.u.)
20,TTTTGCAAAGCATTCCTCGCGCTTTCAGCTAATTACGCATCGGAGTCACCTAGTGCAG,8500 fluorescence intensity (a.u.)
6,TTTATAGGCCATACACATATTTCACTCCACTCCATTCATACGGAGTCACCTAGTGCAG,8520 fluorescence intensity (a.u.)

# Continued.

row,Sequence,binding signal
1,GCCATCCTCTTCTCTCTGCACCTTCCACACCACACACCTCCGGAGTCACCTAGTGCAG,11100 fluorescence intensity (a.u.)
2,GTTTCCTGGTGGTCCAATATAATACCTAGATAAGGTGTATCGGAGTCACCTAGTGCAG,8510 fluorescence intensity (a.u.)
3,ACGCACACACGCACACCCTATCACTATGAGCACCTCCGGACGGAGTCACCTAGTGCAG,10100 fluorescence intensity (a.u.)
4,CGCAACCCCAAGCACTGGTGTTCTACATTCAATCAATCATCGGAGTCACCTAGTGCAG,38500 fluorescence intensity (a.u.)
5,TCCTCTTGTTTGTGGCAAAGATCTGGGTTCTTTTTTTTTCCGGAGTCACCTAGTGCAG,9000 fluorescence intensity (a.u.)
6,TTCAGATCCATAGTATTAGGTTGTGTCTAATCTCTGTCCACGGAGTCACCTAGTGCAG,8140 fluorescence intensity (a.u.)
7,AATCTTCTACCACTTAATTCTACCTACTTTCTTAATAACTCGGAGTCACCTAGTGCAG,8690 fluorescence intensity (a.u.)
8,GGCGGTTTTTAAACTTATAGGGTTGTATCATCTAGGTCTTCGGAGTCACCTAGTGCAG,8300 fluorescence intensity (a.u.)
9,TGCTATTGGAACCTTTTACTTGATATAATACAATATAATACGGAGTCACCTAGTGCAG,8090 fluorescence intensity (a.u.)
10,GTCATCGACATGTGGTGGTGAATTTGCTTTTCTTTTTCTACGGAGTCACCTAGTGCAG,8050 fluorescence intensity (a.u.)
11,TCCCACCTTCCGCTCGTTTTTCTTGAGCATATGCTTCTCACGGAGTCACCTAGTGCAG,10100 fluorescence intensity (a.u.)
12,GCACACCGTAGCTAACTTCTCTCCTTCTGGGTATAAATATCGGAGTCACCTAGTGCAG,8240 fluorescence intensity (a.u.)
13,ATGCTTCCCGTTGCAACGCACAGGTATTTTTGCTAGTAAACGGAGTCACCTAGTGCAG,9980 fluorescence intensity (a.u.)
14,TCATGGGTGAGTCCACGCGTATTACATGATTTTTATTCCCCGGAGTCACCTAGTGCAG,8300 fluorescence intensity (a.u.)
15,ATCACCCGCCTCGCCGCCCGCCCGCGCCGCGGCGGATCGACGGAGTCACCTAGTGCAG,8550 fluorescence intensity (a.u.)
16,ATCTCGCCTCGCGTCCTCCGTCCGTCCTCGTCAAGTCGTCCGGAGTCACCTAGTGCAG,14100 fluorescence intensity (a.u.)
17,CAACAATTCCTTCCTTCCTTCCTTTGTGGTTGACCAAATACGGAGTCACCTAGTGCAG,9570 fluorescence intensity (a.u.)
18,CCTTGCCCGTGGCCGCACACCACACCATAGCCGGCAGCAGCGGAGTCACCTAGTGCAG,10600 fluorescence intensity (a.u.)
19,CTAGCGCATATTAGCCGTTGGTTGGTTTAGTATACGTACGCGGAGTCACCTAGTGCAG,10400 fluorescence intensity (a.u.)
20,CTTCCCATCTCGTTTCCACCGCACCTTTTTCCTCTCGGCGCGGAGTCACCTAGTGCAG,10000 fluorescence intensity (a.u.)
21,GTCAGTTTCTCTTTTTTTTTCCCGTGAAATTAGGCGCTAGCGGAGTCACCTAGTGCAG,8640 fluorescence intensity (a.u.)
